# Reference: PubChem BioAssay AID504444 (National Center for Advancing Translational Sciences (NCATS), 2011)
# Among all 360,000 compounds or so, about 7,500 (2.1%) were called active. Inconclusive means that the source gave no clear call. Such entries were picked first, then a sample of the others. Calls come from the whole dose curve; as a rule, active = well fitted inhibition curve with a large enough effect; inconclusive = small, poorly fitted or top-dose-only effect, or effect the other way; inactive = flat fitted curve, though single readings scatter. Where the call is inconclusive, the potency comes from a doubtful curve fit.
# Assay: Nrf2 qHTS screen for inhibitors; note: nearly all actives have a fitted effect of over 60% in size
# Conditions: A549 ARE-Fluc reporter, luciferase luminescence, 18-24 h; activity change, negative = inhibition: at 46 µM (top of the series)
# Method in brief: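 Two sequential reads on A549 ARE_Fluc cells exposed to compound for 18-24 h: a CellTiter-Fluor fluorescence read for viability, then a luciferase luminescence read for Nrf2/ARE activity.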
# % is set by controls: 0 for no effect and ±100 for the full control effect; potency is the fitted concentration of half-maximal effect.
Structure (SMILES),Potency,"activity change, negative = inhibition"
O=C(NC(=S)NNC(=O)c1ccccc1[N+](=O)[O-])c1ccccc1,"inconclusive: 3.66 µM [activator, full curve, poor fit]",
Cc1ccc(-c2onc(C)c2C)cc1S(=O)(=O)Nc1ccc(Cl)cn1,"inconclusive: 16.4 µM [activator, partial curve, poor fit]",
CN(CC(=O)Nc1ccc(Cl)cc1)C(=O)c1sccc1-c1ccccc1,"inconclusive: 29.1 µM [falling, single point]",
O=C(NNC(=O)c1cc(-c2ccc(Br)cc2)nc2ccccc12)c1csc(N2CCOCC2)n1,"inconclusive: 18.4 µM [falling, single point]",
Cc1cccc(NC(=S)NNC(=O)c2ccc3c(c2)OCO3)c1,"inconclusive: 23.1 µM [activator, partial curve]",
O=[N+]([O-])c1cccc(-c2n[nH]c(=S)n2-c2ccc(Br)cc2)c1,"inconclusive: 2.31 µM [falling, full curve, poor fit]",
C/C(=N/OC(=O)c1c(-c2ccccc2Cl)noc1C)c1cnccn1,"inconclusive: 5.17 µM [activator, full curve, poor fit]",
COc1ccc(CSCC(=O)N/N=C/c2ccccc2O)cc1,,inactive: -6.71%
COc1cc2c(cc1OC)-c1cc(Nc3ccc(N(C)C)cc3)nc(=O)n1CC2,"inconclusive: 13 µM [falling, partial curve]",
COc1ccc(C(=O)Oc2cc(-c3ccc4c(c3)OCO4)cc(=O)c3c(C)oc(C)c23)cc1,,inactive: 18.4%
Cc1cc(C(=O)N/N=C/c2cc([N+](=O)[O-])ccc2O)c2ccccc2n1,,inactive: -19.8%
CC(C)c1ccc(C(=O)CN2C(=O)NC3(CCc4ccccc43)C2=O)cc1 (centres undefined),"inconclusive: 18.4 µM [falling, partial curve, poor fit]",
Cc1ccc(Cl)cc1NC(=O)CSc1nc2c(c(=O)[nH]1)CN(Cc1ccccc1)CC2,"inconclusive: 18.4 µM [falling, single point]",
COc1ccc(S(=O)(=O)N2CCN(CC(=O)Nc3ccc(Cl)c(C(F)(F)F)c3)CC2)cc1,"inconclusive: 29.1 µM [falling, single point]",
C=CCn1c2ccccc2c(=O)c2cc(C#CC3(O)CCCCC3)ccc21,"inconclusive: 1.46 µM [activator, partial curve]",
O=C(Nc1ccc(Cc2ccncc2)cc1)c1cccc([N+](=O)[O-])c1,"inconclusive: 29.1 µM [falling, single point]",
CC1CCc2c(sc(/N=C/N(C)C)c2C#N)C1 (centres undefined),"inconclusive: 2.91 µM [activator, partial curve]",
C[C@H](O)[C@@H]1C(=O)N2CCc3ccc(-c4cccc(F)c4)cc3[C@@H]2C[C@@H]1N(C)S(=O)(=O)c1ccccc1,"inconclusive: 29.1 µM [falling, single point]",
CCCNC(=O)Cn1cnc2sc(C(=O)Nc3ccc4c(c3)OCO4)c(C)c2c1=O,"inconclusive: 6.51 µM [activator, single point]",
COc1ccccc1NC(=S)N(Cc1ccco1)Cc1cc2ccc(C)c(C)c2[nH]c1=O,"inconclusive: 20.6 µM [activator, single point]",
CCCNC(=S)N1CCN(c2nc(-c3cccc(OC)c3)cs2)CC1,"inconclusive: 18.4 µM [falling, single point]",
CCN(C(=O)COC(=O)c1cnc(C)cn1)C1CCS(=O)(=O)C1 (centres undefined),"inconclusive: 3.66 µM [activator, full curve, poor fit]",

Structure (SMILES),Potency,"activity change, negative = inhibition"
COc1ccc(-c2nnc(-c3ccc(N)cc3)o2)cc1,,inactive: 29.3%
COc1ccc(CN(C)C(=O)c2ccc(COc3ccccc3)cc2)c(OC)c1,"inconclusive: 23.1 µM [falling, single point]",
COc1ccc(CCNc2ccc(C(CC(N)=O)NC(=O)c3ccc(Br)cc3)cc2[N+](=O)[O-])cc1 (centres undefined),"inconclusive: 13 µM [falling, single point]",
CC(C)CC(NC(=O)C1CCC(C)CC1)C(=O)NCc1ccccn1 (centres undefined),"inconclusive: 14.6 µM [activator, partial curve, poor fit]",
Cc1cc(-c2ccc(S(=O)(=O)Nc3ccc(Br)c(C)c3)s2)on1,,inactive: -22.2%
COc1ccccc1Sc1nc(-c2ccccn2)ncc1OC,"inconclusive: 23.1 µM [falling, single point]",
O=C(NCc1nnc(SCc2ccc(C(F)(F)F)cc2)n1-c1ccccc1)C12CC3CC(CC(C3)C1)C2,"inconclusive: 18.4 µM [falling, single point]",
O=C(c1ccco1)N(Cc1cccc(Cl)c1)C1CCS(=O)(=O)C1 (centres undefined),"inconclusive: 14.6 µM [activator, partial curve, poor fit]",
O=C(/C=C/c1ccc(F)cc1)NC(=S)N1CCN(c2ccccn2)CC1,"inconclusive: 16.4 µM [activator, single point]",
Oc1ccc(-c2csc(Nc3ccc4c(c3)OCO4)n2)c(O)c1,,inactive: 18.1%
Cc1ccccc1C(=O)NNC(=S)Nc1cccc(C(F)(F)F)c1,active: 11.6 µM,
CCCCc1cc(=O)oc2cc(C)cc(OC(C)C(=O)NC(Cc3c[nH]c4ccc(O)cc34)C(=O)O)c12 (centres undefined),,inactive: -4.16%
CC(=O)N(C(C)=O)n1c(/C=C/c2ccc([N+](=O)[O-])cc2)nc2ccccc2c1=O,"inconclusive: 23.1 µM [falling, single point]",
O=S(=O)(c1ccc2nc(N3CCN(c4ccccc4)CC3)ccc2c1)N1CCCCC1,"inconclusive: 7.31 µM [falling, partial curve, poor fit]",
Cc1ccccc1Nc1nc(Nc2ccccc2C)nc(SC2=NCCS2)n1,active: 25.9 µM,
Cc1ccc(Cl)c2sc(N3CCN(C(=O)c4ccco4)CC3)nc12,"inconclusive: 16.4 µM [falling, single point]",
COc1ccc(-c2noc(-c3cccc(OC)c3OC)n2)cc1,"inconclusive: 2.59 µM [activator, full curve]",
CCOc1ccc(-c2cn3c(n2)sc2cc(C(=O)NC4CCCc5ccccc54)ccc23)cc1 (centres undefined),"inconclusive: 29.1 µM [activator, single point]",
C=CCn1c(SCC(=O)c2ccc(O)c(O)c2)nnc1-c1cccc(C)c1,,inactive: 16.1%
O=C(Nc1ccc2c(c1)OCCO2)C1CCN(c2ncccn2)CC1,,inactive: 2.43%
COc1ccccc1NC(CC(=O)c1ccccc1)C(=O)OCC(=O)c1ccc(C)cc1 (centres undefined),"inconclusive: 9.2 µM [activator, partial curve]",
C=CCn1c(SCC(=O)N2CCOCC2)nc2sc(CC)cc2c1=O,"inconclusive: 29.1 µM [falling, single point]",

# No new results follow: two of the compounds above.
Structure (SMILES),Potency,"activity change, negative = inhibition"
O=C(Nc1ccc2c(c1)OCCO2)C1CCN(c2ncccn2)CC1,,inactive: 2.43%
COc1ccccc1NC(CC(=O)c1ccccc1)C(=O)OCC(=O)c1ccc(C)cc1 (centres undefined),"inconclusive: 9.2 µM [activator, partial curve]",

# The results go on.

Structure (SMILES),Potency,"activity change, negative = inhibition"
COc1ccc(NC(=O)c2cn3c4c(ccc(Cl)c4c2=O)OC(C)C3)cc1OC (centres undefined),"inconclusive: 9.2 µM [activator, single point]",
Cc1ccc(OCC(=O)Nc2nc(-c3ccccn3)cs2)c(C)c1,"inconclusive: 29.1 µM [falling, single point]",
O=C(/C=C/c1ccc2c(c1)OCO2)NCCSCc1ccc(Cl)cc1,"inconclusive: 29.1 µM [falling, single point]",
CCN(CC)S(=O)(=O)c1ccc2oc(C(=O)Nc3ccc(OC)cc3OC)c(C)c2c1,active: 3.66 µM,
COc1ccc(N(Cc2cccs2)C(=O)COc2cc(C)c(Cl)c(C)c2)cc1,"inconclusive: 32.6 µM [falling, single point]",
COc1ccc(C(=O)/C=C/C(=O)N(CC(=O)NC2CCCCC2)CC2CCCO2)c(O)c1 (centres undefined),active: 20.6 µM,
CCCN(c1ccc(C(C)C)cc1)S(=O)(=O)c1c(C)[nH]c(=O)[nH]c1=O,active: 5.8 µM,
CCN(CC)c1ccc(/C=N/NC(=O)c2ccc(Br)o2)cc1,"inconclusive: 3.66 µM [activator, partial curve]",
Cc1ccc(NC(=O)c2ccc(CSc3nccc(C)n3)cc2)cc1,"inconclusive: 29.1 µM [falling, single point]",
CCOC(=O)/C(=N/Nc1ccccc1)Sc1nnnn1-c1ccc(C)cc1,"inconclusive: 0.517 µM [activator, partial curve, poor fit]",
O=C(CC1SC(N2CCCC2)=NC1=O)Nc1ccc(C(=O)N2CCN(c3cccc(Cl)c3)CC2)cc1 (centres undefined),active: 20.6 µM,
CCOC(=O)N1C(=O)[C@@](c2ccc(Cl)cc2)(C(C)C)N1C(=O)OCC,"inconclusive: 23.1 µM [falling, single point]",
O=C(N/N=C1\CCc2ccccc21)c1ccccc1Cl,"inconclusive: 2.91 µM [activator, full curve]",
Cc1ccc(CNC(=O)[C@H](C)N2C(=O)N3CCc4c([nH]c5ccccc45)[C@@]3(C)C2=O)cc1,,inactive: -26.4%
CCOc1ccccc1NC(=O)c1cc(S(=O)(=O)NCc2ccco2)ccc1F,"inconclusive: 29.1 µM [falling, single point]",
CCc1ccc(-c2nc(CCl)cs2)cc1,"inconclusive: 8.2 µM [activator, partial curve]",
COc1cc(C(=O)N2CC(=O)Nc3ccc(C)cc3C2c2ccc(F)cc2)cc(OC)c1OC (centres undefined),,inactive: 9.07% [at 9.27 µM]
CCOC(=O)CNC(=O)COc1coc(CN2CCN(c3ccc(F)cc3)CC2)cc1=O,"inconclusive: 23.1 µM [activator, partial curve, poor fit]",
CCc1ccc(Oc2cc(C)nc(N)n2)cc1,"inconclusive: 2.31 µM [activator, full curve]",
CCc1ccc(NC(=O)c2cc3c([nH]c2=O)CC(C)(C)CC3=O)cc1,,inactive: 20.2%
